Results deposited as PubChem BioAssay AID504774 (Drosophila RNAi Screening Center, 2011).
Assay: 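Genes required for cells to withstand methyl methanesulphonate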 (primary screen). System: Drosophila Kc167 cells. Knock-down reagent: long dsRNA against Drosophila genes, about 0.25 µg dsRNA per well. Timing: about 6 days: 3 days knock-down, then 3 days with or without MMS. Challenge: methyl methanesulphonate 0.004% (w/v) for 3 days after knock-down. Detection: 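Viability in wells given MMS, read as ATP luminescence, normalised by quantiles plate by plate and averaged across replicates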. Scale: mean viability with MMS: higher = more surviving cells after MMS.
The deposit covers about 23,000 reagents; this is a random part of those that have a named target and a result. 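Values are quantile-normalised luminescence on an arbitrary scale; higher means more cells surviving MMS.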 A plus sign joins genes that one reagent is predicted to hit. Not all columns of the deposit are shown.

With knock-down of Ald1 [DRSC14109], the record shows mean viability with MMS 3.46e6. Against Coq7 + shf [DRSC18448], the values are mean viability with MMS 3.73e6. For l(1)G0196 [DRSC20591], the entry reads mean viability with MMS 2.45e6. With knock-down of l(1)G0196 [DRSC20628] the results were mean viability with MMS 3.65e6. Against l(1)G0196 [DRSC20629], the entry reads mean viability with MMS 3.56e6. stol [DRSC01956] showed mean viability with MMS 3.48e6.

CG7728 [DRSC10907] scored mean viability with MMS 3.58e6. CG14696 [DRSC14919] scored mean viability with MMS 3.38e6. Mst84Dc [DRSC12599] gave mean viability with MMS 3.59e6. Depletion of CG33919 [DRSC04940] came out at: mean viability with MMS 3.55e6. With knock-down of CG9021 [DRSC03128], the screen gave mean viability with MMS 3.60e6. For CG15638 [DRSC01875], the entry reads mean viability with MMS 3.77e6.

After knock-down of CG9003 [DRSC07317] the results were mean viability with MMS 3.47e6. Silencing of Max [DRSC11218] gave: mean viability with MMS 3.49e6. After knock-down of CG32650 [DRSC19899], the screen gave mean viability with MMS 3.40e6. For Ir92a [DRSC15111] the deposit lists mean viability with MMS 3.69e6. Silencing of dbr [DRSC00274] resulted in: mean viability with MMS 3.03e6. For Syt14 [DRSC12331], the values are mean viability with MMS 3.66e6.

Gr64f [DRSC08447] scored mean viability with MMS 3.49e6. Silencing of pll [DRSC17026] gave: mean viability with MMS 3.67e6. Cirl [DRSC21942] gave mean viability with MMS 2.86e6. For Cirl [DRSC23235], the values are mean viability with MMS 3.70e6. Knock-down of Mhc [DRSC03367] came out at: mean viability with MMS 3.30e6. CG14325 [DRSC14804] gave mean viability with MMS 3.45e6.

Against lncRNA:CR40629 [DRSC20959], the values are mean viability with MMS 2.31e6. For CG1138 [DRSC12530], the values are mean viability with MMS 3.63e6. Depletion of CG2004 [DRSC18200] came out at: mean viability with MMS 3.49e6. Silencing of UbcE2H [DRSC18221] resulted in: mean viability with MMS 3.61e6. Silencing of CG17928 [DRSC02644] resulted in: mean viability with MMS 3.55e6. MESK2 [DRSC04258] scored mean viability with MMS 3.52e6.

With knock-down of DCTN6-p27 [DRSC02609] the results were mean viability with MMS 3.64e6. Knock-down of DCTN6-p27 [DRSC22810] resulted in: mean viability with MMS 3.42e6. CG13460 [DRSC10007] gave mean viability with MMS 3.63e6. After knock-down of CG31365 [DRSC15610], the record shows mean viability with MMS 3.56e6. Depletion of CG14034 [DRSC02359] resulted in: mean viability with MMS 3.47e6.

Targets listed so far whose gene name starts with S or s (2):
stol [DRSC01956] | mean viability with MMS: 3.48e6
Syt14 [DRSC12331] | mean viability with MMS: 3.66e6
